54 sequences from PMC7819943, “Rice protein-binding microarrays: a tool to detect cis-acting elements near promoter regions in rice” can be followed below.

The list shows a part of the results.

In the test the target is T1, OsSMF1 (Oryza sativa, UniProt Q6ZLB0 1-436).
T1 sequence: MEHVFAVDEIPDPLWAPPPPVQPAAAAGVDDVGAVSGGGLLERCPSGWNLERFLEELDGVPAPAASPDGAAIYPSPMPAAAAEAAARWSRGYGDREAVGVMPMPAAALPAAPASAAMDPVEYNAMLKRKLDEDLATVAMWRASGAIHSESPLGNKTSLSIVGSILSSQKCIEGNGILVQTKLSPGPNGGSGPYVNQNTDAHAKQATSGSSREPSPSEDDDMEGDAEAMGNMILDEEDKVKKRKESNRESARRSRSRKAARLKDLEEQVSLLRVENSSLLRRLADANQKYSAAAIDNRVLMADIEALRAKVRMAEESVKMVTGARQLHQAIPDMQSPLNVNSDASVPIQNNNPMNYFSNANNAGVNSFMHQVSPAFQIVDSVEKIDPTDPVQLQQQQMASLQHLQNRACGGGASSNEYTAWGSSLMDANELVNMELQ
As to the kind of experiment: protein-binding microarray (RPBM); PBS, 2% BSA, 51.3 ng/ul salmon testes DNA, 50 uM zinc acetate, 200 nM TF, 25 C, 1 h; high values mean tight binding. The conditions noted are these: protein: recombinant; tags: N-terminal polyhistidine and DsRed monomer fusion (pET32a); chain copies: 2; label: CyDye5-dUTP incorporated in the synthesized complementary strand; 3' TTTTT single-stranded linker to array surface; dsDNA, one strand shown. Summed up:
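Transcription factors were each fused at the N-terminus to a polyhistidine tag plus DsRed and expressed in E. coli BL21-CodonPlus before Ni–NTA purification. Binding to a double-stranded custom Agilent array was carried out with 200 nM protein at 25 °C for 1 h in PBS, 2% BSA, salmon testes DNA and 50 µM zinc acetate. The binding signal is per-feature fluorescence intensity, in arbitrary units, on an Axon 4000B scanner.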
As to “GGGTTCCGTCCATTCCGCGCCGTTAAATGCATGTTCATTCCGGAGTCACCTAGTGCAG”, the binding signal is 3390 fluorescence intensity (a.u.).

As to “CGTTGCGTTGCGTGGCGTCCTCTTCCCTCCAGTCCCCGCCCGGAGTCACCTAGTGCAG”, the binding signal was 5560 fluorescence intensity (a.u.).

Turning to “GCCGCGATGTCATCGCTAAGTCCTGATGCCGTGTCGCCGTCGGAGTCACCTAGTGCAG”, the binding signal is 5130 fluorescence intensity (a.u.).

For the sequence “CGCGCCGTCGCGGATCACCTGCAGGCCGCCGACGTGGTCCCGGAGTCACCTAGTGCAG”, the binding signal was 6950 fluorescence intensity (a.u.).

Consider “TCCGAGACTGTTAGATCCCCGGGCCCACACGTCAGTCTCACGGAGTCACCTAGTGCAG”, for which the binding signal is 3820 fluorescence intensity (a.u.).

On to “TTGGTGTTGAATACCTTTCAGATGTGGCATCTCAACTGGGCGGAGTCACCTAGTGCAG”, for which the binding signal was 4300 fluorescence intensity (a.u.).

For “CGGCTTCCCTGGTGGCTCAAGACACGTCATTCCGATCCGTCGGAGTCACCTAGTGCAG”, the binding signal was 16900 fluorescence intensity (a.u.).

For “GTAGTACTGAACGTCATCTAACAAACATGGGTCGTTCGATCGGAGTCACCTAGTGCAG”, the binding signal was 4120 fluorescence intensity (a.u.).

Take “GGAGGGAAAGGGAAGGAAGAGAAGAGAGTATGTGGCACTGCGGAGTCACCTAGTGCAG”: the binding signal is 3660 fluorescence intensity (a.u.).

On to “TATGGTAGTTGATGTGCAATGACTCGAGCAAATGGCGCTGCGGAGTCACCTAGTGCAG”, for which the binding signal was 4510 fluorescence intensity (a.u.).

As to “ATTGCTTGTTTGAGTTGTATTATCAAATGTTACCGTAGTGCGGAGTCACCTAGTGCAG”, the binding signal was 3400 fluorescence intensity (a.u.).

As to “GCCATCCCGCTCGAACGCCGTCTTCTTGCTGCCCCAAAGGCGGAGTCACCTAGTGCAG”, the binding signal is 22100 fluorescence intensity (a.u.).

Regarding “CCAAATTGTGTTGTCACCAAACATAAGGTACTATCTGTTTCGGAGTCACCTAGTGCAG”, the binding signal is 3460 fluorescence intensity (a.u.).

As for “ATGGTCCGTCTGAAATCTAAATGGGTCCATATCCAGGAAACGGAGTCACCTAGTGCAG”, the binding signal was 3240 fluorescence intensity (a.u.).

In the case of “AGGCATTTTAACAGTAGTAAGCATTTCACAAAGTGTACCACGGAGTCACCTAGTGCAG”, the binding signal is 25000 fluorescence intensity (a.u.).

On to “ACCACACCATCGAACATGGTGTAGCTCACGGTAGTCCCAACGGAGTCACCTAGTGCAG”, for which the binding signal was 41000 fluorescence intensity (a.u.).

Regarding “CGCGGGTGACGCGAGAATATTCCGAGTTCATATCCTTCATCGGAGTCACCTAGTGCAG”, the binding signal was 3830 fluorescence intensity (a.u.).

As for “CGCCAATAAAGTTGGCGCTGACACGTTATATCTCAGCGCCCGGAGTCACCTAGTGCAG”, the binding signal was 4050 fluorescence intensity (a.u.).

As for “AATGCTAAAGATGAAAAGTGAACCACGTTGATTATCCCGACGGAGTCACCTAGTGCAG”, the binding signal is 3370 fluorescence intensity (a.u.).

As to “GAAGGGGAGAGGGGTGGAAGGGGTAGGAGGATCGGTGAGGCGGAGTCACCTAGTGCAG”, the binding signal was 3280 fluorescence intensity (a.u.).

For “CATCCATCCGGTCAAAGCAGCCGGCCACGTGGCGTGTCCCCGGAGTCACCTAGTGCAG”, the binding signal was 28100 fluorescence intensity (a.u.).

In the case of “GCTGTACCAGTACTGACCGGGGTGGGGTGGCGGGAGCGGACGGAGTCACCTAGTGCAG”, the binding signal is 5320 fluorescence intensity (a.u.).

Turning to “AACGGCAAACCAACAGCTCGGCCGGCCTGAGAGCCGCGGGCGGAGTCACCTAGTGCAG”, the binding signal was 4660 fluorescence intensity (a.u.).

As to “AACCGTCGCAAGACAAAATAATGGTACGCGTGGGGCCGGTCGGAGTCACCTAGTGCAG”, the binding signal is 3510 fluorescence intensity (a.u.).

Consider “AAGATCATCACAATTCATCACTCACAACCACATCACATCCCGGAGTCACCTAGTGCAG”, for which the binding signal was 3260 fluorescence intensity (a.u.).

For “CCCCTTCAGGATGCTACGTGGCGTTGATGTGGCATGCCACCGGAGTCACCTAGTGCAG”, the binding signal was 17000 fluorescence intensity (a.u.).

For “CCTGCTCGCCCGTGCCGCGTGCCAGCCGCTCCGTCACGTCCGGAGTCACCTAGTGCAG”, the binding signal was 4790 fluorescence intensity (a.u.).

As for “TCGCAGGTCAAATGTGGGCTACGGGAGAGTGTCGGCGTGGCGGAGTCACCTAGTGCAG”, the binding signal was 4440 fluorescence intensity (a.u.).

“TGGACAGCGAGAAGCTGGTGATGGACCAGCGACGGCGCAGCGGAGTCACCTAGTGCAG”: the binding signal was 23500 fluorescence intensity (a.u.).

In the case of “CGTCATGTCGCGTCGCGTCGTGTCGTGTCGCCGACATCGCCGGAGTCACCTAGTGCAG”, the binding signal was 4080 fluorescence intensity (a.u.).

As for “TTCCGCAACCTCGGTACGTGTTCAATATGTTGCGCATATTCGGAGTCACCTAGTGCAG”, the binding signal is 4200 fluorescence intensity (a.u.).

As to “AGTATTACTAAAATACTAGTACGCTGTACACGGCATTATTCGGAGTCACCTAGTGCAG”, the binding signal was 3250 fluorescence intensity (a.u.).

For “AAACAGACTCATACTCAGATGACGTACCAAAGTATCGGCACGGAGTCACCTAGTGCAG”, the binding signal is 3900 fluorescence intensity (a.u.).

As for “AAGCAATTGAGGTTATCATTCATCAATGGACCTGACCTGGCGGAGTCACCTAGTGCAG”, the binding signal was 5030 fluorescence intensity (a.u.).

As to “CCAGTATATATGTTGCATCAGCAGCATCATCAAACCTGGTCGGAGTCACCTAGTGCAG”, the binding signal is 4870 fluorescence intensity (a.u.).

For the sequence “ACAAATCTCCAGCTAGACACAAAATGTTCTTTTGAATGAACGGAGTCACCTAGTGCAG”, the binding signal is 5000 fluorescence intensity (a.u.).

“ATACTTAGCCCTGCATTATACAAGTCTAGGCTGATTATTGCGGAGTCACCTAGTGCAG”: the binding signal was 3140 fluorescence intensity (a.u.).

Consider “AATCAGGGTGGCGTGGATACTCGCCGGCCACCTCCCTTTTCGGAGTCACCTAGTGCAG”, for which the binding signal is 3560 fluorescence intensity (a.u.).

For “TATTTCATCCGCTGCAAGTGATCCACATCACGCGAGCCCCCGGAGTCACCTAGTGCAG”, the binding signal is 4850 fluorescence intensity (a.u.).

For “TGGAACGCTCCATGCATGTCAGCACTTGTCACTGCTCTGCCGGAGTCACCTAGTGCAG”, the binding signal is 7840 fluorescence intensity (a.u.).

Take “TTCTGATTAGGCTGCCACATTGGCGGCACGTGTGATAGCTCGGAGTCACCTAGTGCAG”: the binding signal is 45900 fluorescence intensity (a.u.).

On to “TCGAGGGAAGGGGATTGGGAGTTTACACGAGGGAATTGATCGGAGTCACCTAGTGCAG”, for which the binding signal was 3760 fluorescence intensity (a.u.).

For “TCTTCCCGCTCGCCACGTCAGCGCCATGTGAGCAAAACTACGGAGTCACCTAGTGCAG”, the binding signal was 15500 fluorescence intensity (a.u.).

Consider “TACTCTACGTGCGTACAAGTCGCATGTGGAGATGATTAGGCGGAGTCACCTAGTGCAG”, for which the binding signal was 3860 fluorescence intensity (a.u.).

Turning to “TAAAGGGAGGAGGGGAGATGGGCAGTGGCGGCTAGGGTTTCGGAGTCACCTAGTGCAG”, the binding signal was 3580 fluorescence intensity (a.u.).

Turning to “TCTGCAACTATCTGTCCACGCAAGTAAGCATCCATCGATGCGGAGTCACCTAGTGCAG”, the binding signal is 3460 fluorescence intensity (a.u.).

With “GATAGTGTCCCACGCATGCGTCCACGAGTCCTCGACGCAACGGAGTCACCTAGTGCAG”, the binding signal was 3690 fluorescence intensity (a.u.).

Consider “TAATCTGGGAGACGGGGAGAGTATTGCGTTGAGGCCGTCACGGAGTCACCTAGTGCAG”, for which the binding signal is 3250 fluorescence intensity (a.u.).

As for “GCTTGCTTTGTCACATGCAGTTTTACACCTTTTATTTCTCCGGAGTCACCTAGTGCAG”, the binding signal was 6070 fluorescence intensity (a.u.).

As for “TCACTGCTATTTCACATGTAACAAGTTACACGTGGAATATCGGAGTCACCTAGTGCAG”, the binding signal was 8290 fluorescence intensity (a.u.).

Take “CATCATCACCTCCATCATCATGCTTTGCTTGCTTGCTCTACGGAGTCACCTAGTGCAG”: the binding signal was 3140 fluorescence intensity (a.u.).

Take “CAACACCGAATTGCAATCCACTCATGATTGGTATCATTAGCGGAGTCACCTAGTGCAG”: the binding signal was 3340 fluorescence intensity (a.u.).

Take “TGTGTGTGTGTGTGTGTGTGTGTGGATGAGTGTGTGTGTGCGGAGTCACCTAGTGCAG”: the binding signal was 3780 fluorescence intensity (a.u.).

As for “ATTAGGTTTTATATTTATCTATATTTAATGCTTCATGTATCGGAGTCACCTAGTGCAG”, the binding signal was 3440 fluorescence intensity (a.u.).
